Data on 30 molecules can be found in the supplement of paper PMC12889115.

In this experiment the test system is Salmonella enterica serovar Typhimurium SL1344. In words: bacterial growth OD600 after 18 h with compound and polymyxin B; higher = more bacterial growth (less inhibition). Particulars: 50 µM, Mueller-Hinton broth.

SMILES strings stand for the structures. This is one part of the list. These are raw signals, not scaled to a control.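 Primary screen: polymyxin B was added at a level permeabilizing Salmonella outer membranes while sparing inner membranes. DMSO wells, both with and without polymyxin B, established maximum growth. Plate-to-plate variation meant each plate was ranked on its own, and the lowest-OD600 compounds were selected as hits.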

For the molecule `COc1ccc(F)c(CN2CCCC3(CCN(C(=O)NC(C)C)C3)C2=O)c1` (stereo not given), the “bacterial growth OD600” value (polymyxin B 1 µg/mL) was determined as 0.931.
For `O=C(Cc1ccccc1)N1CCOc2c(cc(-c3cccnc3)cc2OCCc2cccs2)C1`, the “bacterial growth OD600” value (polymyxin B 0.75 µg/mL) was 0.01.
On the same count and under the same terms, under `COc1ccccc1CCC(=O)Nc1cnn(CC(=O)N2CCC(C(O)c3cccs3)CC2)c1` (stereo not given) stands 0.864; under `COC1CCCN(C(=O)CC2(c3ccc(-c4ccccc4)cc3)CC(=O)N(C)C2=O)C1` (stereo not given), 0.949.
As for `CCCn1ncc(CN2CCN(Cc3cccc(OC)c3)C(CCO)C2)c1C` (stereo not given), the “bacterial growth OD600” value (polymyxin B 1 µg/mL) was found to be 0.829.
Take `CSc1ccccc1C(=O)N1CCC(C2(CCC(C)C)NC(=O)N(Cc3ccccn3)C2=O)CC1` (stereo not given): the “bacterial growth OD600” value (polymyxin B 0.75 µg/mL) was 0.914.
Turning to `Cc1ccc(CNC(=O)C2CCCN(C3CCN(C(=O)C4CC4)CC3)C2)s1` (stereo not given), where the note is “polymyxin B 1 µg/mL”, the “bacterial growth OD600” value was 0.88.
`COc1cccc(CCC2CCCN(C(=O)CCn3cccn3)C2)c1` (stereo not given): where the note is “polymyxin B 0.75 µg/mL”, the “bacterial growth OD600” value was found to be 0.798.
With `COCCN1C(=O)NC(Cc2ccc(F)cc2)(C2CCN(C(=O)c3ccc(C)cc3)CC2)C1=O` (stereo not given), the “bacterial growth OD600” value (polymyxin B 0.75 µg/mL) is 0.798.
For the molecule `NC(=O)[C@H](Cc1ccccc1)NC(=O)CC1c2ccccc2CCc2ccccc21`, where the note is “polymyxin B 0.75 µg/mL”, the “bacterial growth OD600” value was 0.526.
Consider `Cc1nonc1CN(C)C(=O)c1cc(COc2cccc(C(F)(F)F)c2)[nH]n1`, for which the “bacterial growth OD600” value (polymyxin B 1 µg/mL) is 1.2.
For `O=C(CCC1(Cc2ccccc2)CCC(=O)N1)NC1CCCc2ccccc21` (stereo not given), the “bacterial growth OD600” value (polymyxin B 0.75 µg/mL) amounted to 0.98.
As for `CN(C)c1cccc(C(=O)N2CCC3(CCCN(CC4CC4)C3)C2)c1` (stereo not given), the “bacterial growth OD600” value (polymyxin B 1 µg/mL) is 1.07.
In the case of `CCCNC(=O)N1CCC(N2CCCC(C(=O)NCc3ccccn3)C2)CC1` (stereo not given), for the setting “polymyxin B 1 µg/mL”, the “bacterial growth OD600” value came to 0.99.
Take `CO[C@H]1[C@H](NC(=O)c2ccncc2)c2ccccc2C12CCN(C(=O)C1(c3ccccc3)CC1)CC2`: the “bacterial growth OD600” value (polymyxin B 0.75 µg/mL) is 0.999.
In the case of `Cc1ncc2c(c1CNC(=O)c1ccccc1F)CCN(C(=O)CCn1c(=O)[nH]c3ccccc31)C2`, the “bacterial growth OD600” value (polymyxin B 0.75 µg/mL) was 0.738.
On the same count and under the same terms, under `CCS(=O)(=O)N1CCCC(CCc2ccccc2)C1` (stereo not given) stands 0.266.
In the case of `COc1cccc(CCC(=O)N2CCCC(CCC(=O)NCc3ccccc3F)C2)c1` (stereo not given), the “bacterial growth OD600” value (polymyxin B 1 µg/mL) was determined as 1.06.
Consider `O=C(c1ccc(N2CC[C@H](O)C2)nc1)N1CCC(CCc2ccccc2)CC1`, for which the “bacterial growth OD600” value (polymyxin B 1 µg/mL) came out at 0.847.
On the same count and under the same terms, then `COc1ccc2cc(C(=O)C3CCCN(C(=O)c4cc5ccccc5oc4=O)C3)ccc2c1` (stereo not given), with 0.534.
With `CSCC(=O)NCc1cccnc1N1CCN(c2ccccc2C)CC1`, the “bacterial growth OD600” value (polymyxin B 1 µg/mL) amounted to 0.011.
Consider `Cc1ccc(-c2cnnc(N3CCCC(OCc4ccccn4)C3)n2)o1` (stereo not given), for which, for the setting “polymyxin B 0.75 µg/mL”, the “bacterial growth OD600” value amounted to 0.813.
Consider `CCN(CC1CCCN(CCc2cccc(F)c2)C1)C(=O)C1CC1` (stereo not given), for which, for the setting “polymyxin B 1 µg/mL”, the “bacterial growth OD600” value came to 0.862.
The same measure, in the same setting: under `O=C(c1ccc2c3c(cccc13)CC2)C1CCCN(C(=O)c2ccc[n+]([O-])c2)C1` (stereo not given) stands 0.951.
On to `COc1ccc(CCCNC(=O)c2ccc(N3CCN(C)C(=O)[C@@H]3C)nc2)cc1`, for which the “bacterial growth OD600” value (polymyxin B 0.75 µg/mL) is 0.834.
Turning to `Cc1nnc(SCC(=O)N2CCCC(Nc3ccc(C)c(C)c3)C2)s1` (stereo not given), under “polymyxin B 1 µg/mL”, the “bacterial growth OD600” value is 0.831.
Consider `Cc1nc(CN(C)C(=O)CC2(c3ccccc3C)CC(=O)N(Cc3cccnc3)C2=O)cs1` (stereo not given), for which, under “polymyxin B 0.75 µg/mL”, the “bacterial growth OD600” value is 0.816.
As to `O=C1CCC(C(=O)N2CCN(C3CCCC3)C(=O)C2)CN1CCN1CCOCC1` (stereo not given), the “bacterial growth OD600” value (polymyxin B 1 µg/mL) is 0.991.
The same measure, in the same setting: under `C=CCN(CC=C)C(=O)C1CCC(=O)N(CCc2ccc(OC)cc2)C1` (stereo not given) stands 0.919; under `COc1ccc(CN(C)C2CCCN(CCc3ccccc3)C2)cc1F` (stereo not given), 0.769.
